Measured values taken from paper PMC11111408, “Concurrent inhibition of oncogenic and wild-type RAS-GTP for cancer therapy” (Nature, 2024).
Further values from the same series stand in other lists.

Test system: PRISM DNA-barcoded human tumour cell lines
Experiment: PRISM pooled cell viability assay;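 note: 8 threefold dilutions from 10 µM with 5 days of exposure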
Type: cell-based
Set-up: Area under the curve (AUC): scale not given here
Conditions: for PRISM AUC: KRAS MUT
Protocol: Cells were then lysed in TCL mRNA lysis buffer, and then PCR with reverse transcription was performed. Detection of the barcodes and univariate and multivariate analysis was then performed as previously described. Data analysis is described in the Supplementary Methods. Up-to-date code for our analysis is at the github link: https://github.com/cmap/dockerized_mts.
For every gene with non-silent mutations in at least four cell-lines, we compared the AUC values between cells with and without those mutations using a t-test. This analysis was carried out for: (i) the full dataset; (ii) excluding cell lines with non-silent KRAS mutations; and (iii) excluding cell lines that have either KRAS or NRAS non-silent mutations.

[1] = NB4_HAEMATOPOIETIC_AND_LYMPHOID_TISSUE

CCn1c(-c2cc(N3CCN(C4CC4)CC3)cnc2[C@H](C)OC)c2c3cc(ccc31)-c1csc(n1)C[C@H](NC(=O)[C@H]1[C@@H]3COC[C@@H]31)C(=O)N1CCC[C@H](N1)C(=O)OCC(C)(C)C2 [RMC-7977]
Area under the curve (AUC) (LXF289_LUNG): 0.6907 | Area under the curve (AUC) (M059K_CENTRAL_NERVOUS_SYSTEM): 0.7622 | Area under the curve (AUC) (MALME3M_SKIN): 1 | Area under the curve (AUC) (MB1_THYROID): 0.7342 | Area under the curve (AUC) (MC116_HAEMATOPOIETIC_AND_LYMPHOID_TISSUE): 0.918 | Area under the curve (AUC) (MCAS_OVARY): 0.6256 | Area under the curve (AUC) (MCC26_SKIN): 0.917 | Area under the curve (AUC) (MCC142_SKIN): 0.7244 | Area under the curve (AUC) (MCF7_BREAST): 0.8296 | Area under the curve (AUC) (MDAMB175VII_BREAST): 0.5331 | Area under the curve (AUC) (MDAMB231_BREAST): 0.6442 | Area under the curve (AUC) (MDAMB361_BREAST): 0.8572 | Area under the curve (AUC) (MDAMB435S_SKIN): 0.9961 | Area under the curve (AUC) (MDAMB436_BREAST): 0.8407 | Area under the curve (AUC) (MDAMB453_BREAST): 0.731 | Area under the curve (AUC) (MDAMB468_BREAST): 0.7126 | Area under the curve (AUC) (MDST8_LARGE_INTESTINE): 0.9473 | Area under the curve (AUC) (MEG01_HAEMATOPOIETIC_AND_LYMPHOID_TISSUE): 0.4846 | Area under the curve (AUC) (MEL285_UVEA): 0.7295 | Area under the curve (AUC) (MEL290_UVEA): 0.8928 | Area under the curve (AUC) (MELHO_SKIN): 1 | Area under the curve (AUC) (MELJUSO_SKIN): 0.3982 | Area under the curve (AUC) (MEWO_SKIN): 0.7209 | Area under the curve (AUC) (MFE280_ENDOMETRIUM): 0.6754 | Area under the curve (AUC) (MFE296_ENDOMETRIUM): 0.8356 | Area under the curve (AUC) (MFE319_ENDOMETRIUM): 0.9941 | Area under the curve (AUC) (MG63_BONE): 0.8866 | Area under the curve (AUC) (MHHES1_BONE): 0.8228 | Area under the curve (AUC) (MHHNB11_AUTONOMIC_GANGLIA): 0.7124 | Area under the curve (AUC) (MIAPACA2_PANCREAS): 0.3588 | Area under the curve (AUC) (MKN1_STOMACH): 0.6619 | Area under the curve (AUC) (MKN7_STOMACH): 0.5948 | Area under the curve (AUC) (MKN45_STOMACH): 0.3337 | Area under the curve (AUC) (MKN74_STOMACH): 0.8298 | PRISM AUC (MM1S_HAEMATOPOIETIC_AND_LYMPHOID_TISSUE): 0.6158 | Area under the curve (AUC) (MM127_SKIN): 0.7266 | Area under the curve (AUC) (MMNK1_BILIARY_TRACT): 0.999 | Area under the curve (AUC) (MOLM13_HAEMATOPOIETIC_AND_LYMPHOID_TISSUE): 0.3776 | Area under the curve (AUC) (MOLP2_HAEMATOPOIETIC_AND_LYMPHOID_TISSUE): 0.849 | Area under the curve (AUC) (MOLT3_HAEMATOPOIETIC_AND_LYMPHOID_TISSUE): 0.8414 | Area under the curve (AUC) (MOLT16_HAEMATOPOIETIC_AND_LYMPHOID_TISSUE): 0.5675 | Area under the curve (AUC) (MONOMAC1_HAEMATOPOIETIC_AND_LYMPHOID_TISSUE): 0.6697 | Area under the curve (AUC) (MONOMAC6_HAEMATOPOIETIC_AND_LYMPHOID_TISSUE): 0.7004 | Area under the curve (AUC) (MON_SOFT_TISSUE): 0.3222 | Area under the curve (AUC) (MP41_UVEA): 0.8614 | Area under the curve (AUC) (MPP89_PLEURA): 0.9924 | Area under the curve (AUC) (MS751_CERVIX): 0.735 | Area under the curve (AUC) (MSTO211H_PLEURA): 0.6492 | Area under the curve (AUC) (NALM6_HAEMATOPOIETIC_AND_LYMPHOID_TISSUE): 0.8351 | Area under the curve (AUC) (NB1_AUTONOMIC_GANGLIA): 0.6342 | Area under the curve (AUC) [1]: 0.5266 | PRISM AUC [1]: 0.232 | Area under the curve (AUC) (NCCIT_TESTIS): 1 | Area under the curve (AUC) (NCIH23_LUNG): 0.6252 | Area under the curve (AUC) (NCIH28_PLEURA): 0.8384 | Area under the curve (AUC) (NCIH82_LUNG): 0.8492 | Area under the curve (AUC) (NCIH196_LUNG): 1 | Area under the curve (AUC) (NCIH211_LUNG): 0.8183 | Area under the curve (AUC) (NCIH226_LUNG): 0.705 | Area under the curve (AUC) (NCIH292_LUNG): 0.6153 | Area under the curve (AUC) (NCIH322_LUNG): 0.6227 | Area under the curve (AUC) (NCIH358_LUNG): 0.2941 | Area under the curve (AUC) (NCIH441_LUNG): 0.4711 | Area under the curve (AUC) (NCIH446_LUNG): 0.9739 | Area under the curve (AUC) (NCIH460_LUNG): 0.4183 | PRISM AUC (NCIH460_LUNG): 0.2192 | Area under the curve (AUC) (NCIH508_LARGE_INTESTINE): 0.6847 | Area under the curve (AUC) (NCIH520_LUNG): 0.8097 | Area under the curve (AUC) (NCIH522_LUNG): 0.9025 | Area under the curve (AUC) (NCIH524_LUNG): 0.9063 | Area under the curve (AUC) (NCIH596_LUNG): 0.7005 | Area under the curve (AUC) (NCIH647_LUNG): 0.7634 | Area under the curve (AUC) (NCIH650_LUNG): 0.6613 | PRISM AUC (NCIH650_LUNG): 0.429 | Area under the curve (AUC) (NCIH661_LUNG): 0.8278 | Area under the curve (AUC) (NCIH727_LUNG): 0.6359 | Area under the curve (AUC) (NCIH747_LARGE_INTESTINE): 0.3921 | Area under the curve (AUC) (NCIH838_LUNG): 0.8455 | Area under the curve (AUC) (NCIH841_LUNG): 0.941 | Area under the curve (AUC) (NCIH1048_LUNG): 0.6675 | Area under the curve (AUC) (NCIH1092_LUNG): 0.6271 | Area under the curve (AUC) (NCIH1299_LUNG): 0.6889 | Area under the curve (AUC) (NCIH1339_LUNG): 0.6849 | Area under the curve (AUC) (NCIH1341_LUNG): 0.6214 | Area under the curve (AUC) (NCIH1355_LUNG): 0.6596 | Area under the curve (AUC) (NCIH1373_LUNG): 0.5107 | Area under the curve (AUC) (NCIH1437_LUNG): 0.7917 | Area under the curve (AUC) (NCIH1563_LUNG): 0.7144 | Area under the curve (AUC) (NCIH1568_LUNG): 0.7755 | Area under the curve (AUC) (NCIH1573_LUNG): 0.6866 | PRISM AUC (NCIH1573_LUNG): 0.4531 | Area under the curve (AUC) (NCIH1581_LUNG): 0.7972 | Area under the curve (AUC) (NCIH1623_LUNG): 0.8649 | Area under the curve (AUC) (NCIH1648_LUNG): 0.3071 | Area under the curve (AUC) (NCIH1650_LUNG): 0.797 | Area under the curve (AUC) (NCIH1651_LUNG): 0.9043 | Area under the curve (AUC) (NCIH1693_LUNG): 0.6784 | Area under the curve (AUC) (NCIH1694_LUNG): 0.767 | Area under the curve (AUC) (NCIH1703_LUNG): 0.7407 | Area under the curve (AUC) (NCIH1792_LUNG): 0.4978 | Area under the curve (AUC) (NCIH1793_LUNG): 0.6566 | Area under the curve (AUC) (NCIH1838_LUNG): 0.5835 | Area under the curve (AUC) (NCIH1876_LUNG): 1 | Area under the curve (AUC) (NCIH1915_LUNG): 0.7374 | Area under the curve (AUC) (NCIH1944_LUNG): 0.6363 | Area under the curve (AUC) (NCIH1975_LUNG): 0.6858 | Area under the curve (AUC) (NCIH2004RT_SOFT_TISSUE): 0.7786 | Area under the curve (AUC) (NCIH2009_LUNG): 0.6469 | PRISM AUC (NCIH2009_LUNG): 0.5685 | Area under the curve (AUC) (NCIH2023_LUNG): 0.6182 | Area under the curve (AUC) (NCIH2052_PLEURA): 0.5755 | Area under the curve (AUC) (NCIH2077_LUNG): 0.7082 | Area under the curve (AUC) (NCIH2087_LUNG): 0.63 | Area under the curve (AUC) (NCIH2110_LUNG): 0.7052 | Area under the curve (AUC) (NCIH2122_LUNG): 0.5463 | Area under the curve (AUC) (NCIH2126_LUNG): 0.7619 | Area under the curve (AUC) (NCIH2170_LUNG): 0.7103 | Area under the curve (AUC) (NCIH2171_LUNG): 0.9478
